By UniProt entry, the sequences of proteins in these tests, tags left out. Residues count along the entry.
UniProt P38646, residues 47-679: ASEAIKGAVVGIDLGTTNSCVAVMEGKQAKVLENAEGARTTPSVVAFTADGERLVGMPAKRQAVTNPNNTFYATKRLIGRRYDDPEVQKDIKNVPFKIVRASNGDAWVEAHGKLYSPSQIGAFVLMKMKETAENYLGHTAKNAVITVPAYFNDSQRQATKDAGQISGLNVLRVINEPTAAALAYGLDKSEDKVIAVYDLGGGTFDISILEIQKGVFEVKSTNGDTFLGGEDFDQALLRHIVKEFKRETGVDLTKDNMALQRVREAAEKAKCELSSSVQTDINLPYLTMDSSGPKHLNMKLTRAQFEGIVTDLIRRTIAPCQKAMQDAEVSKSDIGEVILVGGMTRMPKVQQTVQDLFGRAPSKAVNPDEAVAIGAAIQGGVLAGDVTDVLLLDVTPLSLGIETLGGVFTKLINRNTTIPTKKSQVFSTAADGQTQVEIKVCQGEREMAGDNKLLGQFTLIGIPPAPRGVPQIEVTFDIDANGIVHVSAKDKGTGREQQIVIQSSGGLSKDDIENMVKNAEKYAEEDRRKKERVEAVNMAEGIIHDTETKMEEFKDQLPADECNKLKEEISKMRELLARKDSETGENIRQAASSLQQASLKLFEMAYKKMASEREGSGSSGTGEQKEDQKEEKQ
UniProt P11142: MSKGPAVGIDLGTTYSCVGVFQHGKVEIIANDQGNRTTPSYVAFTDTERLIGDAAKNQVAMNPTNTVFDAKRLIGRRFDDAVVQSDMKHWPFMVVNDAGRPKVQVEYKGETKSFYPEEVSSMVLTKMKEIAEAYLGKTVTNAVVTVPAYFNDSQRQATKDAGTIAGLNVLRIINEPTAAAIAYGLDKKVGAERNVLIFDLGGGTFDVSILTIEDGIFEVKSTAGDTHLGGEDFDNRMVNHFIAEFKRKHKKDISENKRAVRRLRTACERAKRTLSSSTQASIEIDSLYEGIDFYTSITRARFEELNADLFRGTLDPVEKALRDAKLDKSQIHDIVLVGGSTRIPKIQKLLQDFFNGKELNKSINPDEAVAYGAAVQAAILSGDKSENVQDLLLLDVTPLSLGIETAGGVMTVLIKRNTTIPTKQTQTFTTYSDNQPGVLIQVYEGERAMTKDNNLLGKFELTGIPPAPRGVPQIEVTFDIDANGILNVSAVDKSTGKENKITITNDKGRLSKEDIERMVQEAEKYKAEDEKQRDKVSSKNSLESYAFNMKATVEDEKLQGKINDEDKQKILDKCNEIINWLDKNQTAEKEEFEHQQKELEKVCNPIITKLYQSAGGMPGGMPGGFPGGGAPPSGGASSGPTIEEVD

According to paper PMC5342444:

Target: T1, CD24 overexpressed from the pcDNA4-CD24-myc plasmid in HT29 cells (human) (UniProt P25063)
T1 sequence: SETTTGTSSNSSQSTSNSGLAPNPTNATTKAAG
Test: affinity purification with mass spectrometry; lysates of HT29 cells transfected with pcDNA4 or pcDNA4-CD24-myc, immunoprecipitated; 12.5% SDS-PAGE, bands of interest excised, LC-MS/MS, MALDI-TOF/TOF; human MSDB databank

binding | Substance
binds | Grp75 (from UniProt P38646 47-679)
binds | Hspa8/Hsc71 (from UniProt P11142 1-646)

These are yes or no findings as the source states them, for the method shown. In cells and extracts the contact can be indirect. A yes stands for co-enrichment or nearness to the bait. Other partners may have been found. Sequences can lack the tags named with a protein.
